Assay results as given in patent US20160251703.
Results from cells or extracts need not show a direct contact. For part of these data: A negative result means that nothing was seen under these conditions. For part of these data: Where a protein sequence is shown, tags need not be part of it.

Experiments:
[1] = target: Lysozyme (in egg white extract) (UniProt P00698); experiment: binding assay; conditions: protein in an extract, protein details: egg white or egg-containing food
[2] = target: T1, Ara h 1 (peanut flour protein) (Arachis hypogaea) (UniProt P43238); experiment: binding assay; conditions: fluorescence turn-on; peanut flour down to 1 ppm in mug cake; K buffer; protein in an extract; protein details: pure peanut flour; label: 5'-fluorescein, 3'-Dabcyl; single-stranded DNA
T1 sequence (looked up, limits assumed): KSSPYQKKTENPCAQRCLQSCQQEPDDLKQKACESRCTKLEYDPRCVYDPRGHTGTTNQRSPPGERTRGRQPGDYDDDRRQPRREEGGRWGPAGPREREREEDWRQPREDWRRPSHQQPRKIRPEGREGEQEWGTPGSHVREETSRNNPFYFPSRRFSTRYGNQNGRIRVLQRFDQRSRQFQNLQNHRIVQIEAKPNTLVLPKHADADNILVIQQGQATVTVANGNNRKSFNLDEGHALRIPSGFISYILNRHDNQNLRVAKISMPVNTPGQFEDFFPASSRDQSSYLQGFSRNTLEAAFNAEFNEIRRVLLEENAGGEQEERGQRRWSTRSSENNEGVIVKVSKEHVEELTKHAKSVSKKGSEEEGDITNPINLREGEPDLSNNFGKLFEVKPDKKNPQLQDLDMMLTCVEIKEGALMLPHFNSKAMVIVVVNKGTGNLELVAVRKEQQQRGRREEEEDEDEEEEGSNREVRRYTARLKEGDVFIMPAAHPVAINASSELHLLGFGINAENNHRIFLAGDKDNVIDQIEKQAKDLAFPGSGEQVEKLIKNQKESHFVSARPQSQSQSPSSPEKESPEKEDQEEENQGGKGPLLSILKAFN

[3] = egg white (protein mixture) spiked in mug cake, label: 5'-fluorescein, 3'-Dabcyl, single-stranded DNA

“TGCAGCTAAGCAGGCGGCTCACAAAACCATTCGCATGCGGCTGCA [MB4]”: binds ([1]; fluorescence turn-on, egg white in K buffer (PBS pH 8.0, 10 mM MgCl2, 50 mM KCl, 100 mM NaCl, detergents), label: 5'-fluorescein, 3'-Dabcyl, single-stranded DNA).

“TCGCACATTCCGCTTCTACCGGGGGGGTCGAGCTGAGTGGATGCGAATCTGTGGGTGGGCCGTAAGTCCGTGTGTGCGAAAATGTGCGA [MB9]”: binds [2]; no binding [1, 3].

“TCGCACATTCCGCTTCTACCGGGGGGGTCGAGCTGAGTGGATGCGAATCTGTGGGTGGGCCGTAAGTCCGTGTGTGCGAATGTGCGA [MB7]”: binds [2]; no binding [1, 3].

“TGCAGCTAAGCAGGCGGCTCACAAAACCATTCGCATGCGGCGCTGC [SPN-E]”: binds ([1]; fluorescence turn-on, egg white diluted 1:20, label: 5'-fluorescein, 3'-DABCYL, single-stranded DNA).

“TGCAGCTAAGCAGGCGGCTCACAAAACCATTCGCATGCGGCGCTGCA [MB6]”: binds ([1]; fluorescence turn-on, egg white in K buffer, decreased in P+ buffer, label: 5'-fluorescein, 3'-Dabcyl, single-stranded DNA).

“TGCAGCTAAGCAGGCGGCTCACAAAACCATTCGCATGCGGC / CTTAGCTGCA [SPN-E*]”: binds ([1]; fluorescence turn-on, egg white diluted 1:20000, 100 uM SPN, folded or branched DNA).

“TGCAGCTAAGCAGGCGGCTCACAAAACCATTCGCATGCGGCCTGCA [MB5]”: binds ([1]; fluorescence turn-on, egg white in P+, P-, K and T buffers, label: 5'-fluorescein, 3'-Dabcyl, single-stranded DNA).
